Reference: patent US20160017322

Amino acid sequences for entries named in this document (tags omitted). Residues count along the entry.
UniProt P26368, 2-475: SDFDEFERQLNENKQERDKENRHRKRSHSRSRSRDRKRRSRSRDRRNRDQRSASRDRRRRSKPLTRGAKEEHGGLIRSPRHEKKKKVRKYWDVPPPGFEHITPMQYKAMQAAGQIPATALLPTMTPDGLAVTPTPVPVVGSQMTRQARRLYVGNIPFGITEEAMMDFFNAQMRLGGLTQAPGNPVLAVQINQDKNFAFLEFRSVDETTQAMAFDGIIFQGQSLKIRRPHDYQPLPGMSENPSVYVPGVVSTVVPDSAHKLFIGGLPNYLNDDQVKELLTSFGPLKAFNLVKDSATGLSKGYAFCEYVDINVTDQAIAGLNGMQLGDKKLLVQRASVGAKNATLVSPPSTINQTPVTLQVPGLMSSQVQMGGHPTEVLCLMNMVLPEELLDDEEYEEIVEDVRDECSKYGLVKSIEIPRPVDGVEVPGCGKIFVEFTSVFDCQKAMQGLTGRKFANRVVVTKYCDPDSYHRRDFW

Target: U2AF65 (Homo sapiens) (UniProt P26368)
Test: pull-down
Details: very weak binding if any to the retention target; protein in an extract; protein details: endogenous, HeLa nuclear extract

“CAGGCCCCAGCUCUGCAG [CD5 RNA (antisense target sequence)]”: binds more weakly.

Construct, isoform or probe ends are uncertain for at least one entry. At least one result comes from cells or an extract, where the contact may be indirect. The comparison behind a weaker result is the experiment's own reference, which may not be listed here.
